Over roughly 33,000 sequences, “E-score (-0.5 to 0.5)” has its median near -0.0014; the highest 2% begin near 0.25. The list shows a part of the results.
What follows are sequences tested against T1, Cad1 (UniProt P24813) (assay: PBM E-score (8-mer binding enrichment) (E-score (-0.5 to 0.5)); higher = stronger / more preferred TF binding). Conditions: protein concentration: 100 nM; construct: GST-full length.
T1 sequence: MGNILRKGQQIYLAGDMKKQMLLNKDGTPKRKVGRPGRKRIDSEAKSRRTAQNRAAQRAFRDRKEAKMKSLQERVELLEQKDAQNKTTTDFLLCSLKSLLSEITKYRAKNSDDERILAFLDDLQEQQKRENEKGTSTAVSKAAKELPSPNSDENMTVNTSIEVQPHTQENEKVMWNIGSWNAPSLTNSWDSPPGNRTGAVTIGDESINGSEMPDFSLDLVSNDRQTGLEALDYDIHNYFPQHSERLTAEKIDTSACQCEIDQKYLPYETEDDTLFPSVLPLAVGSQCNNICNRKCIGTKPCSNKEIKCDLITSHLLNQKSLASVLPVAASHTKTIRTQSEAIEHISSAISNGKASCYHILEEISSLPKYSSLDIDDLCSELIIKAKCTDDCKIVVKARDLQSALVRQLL
Procedure: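 Universal 'all 10-mer' protein binding microarrays (Agilent AMADID 015681) probed with GST-tagged S. cerevisiae TFs (full-length or DBD) made by in vitro transcription/translation (PURExpress), about 100-200 nM. Bound TF was detected with fluorescent anti-GST. Each ungapped 8-mer (which stands for itself and its reverse complement) is scored by the PBM enrichment score (E-score), a modified Wilcoxon-Mann-Whitney statistic from -0.5 to +0.5, computed with the Universal PBM Analysis Suite. Scale: above 0.35 generally sequence-specific binding.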

| Sequence | PBM E-score |
| --- | --- |
| AGGGTTCC | -0.0525 |
| ACAATAAC | 0.196 |
| CCGGCGAC | -0.0761 |
| GCAACTCA | 0.182 |
| CGGTTACG | -0.0162 |
| CTCTTCGC | -0.0391 |
| CAGGGGAG | -0.277 |
| ATTATAGA | -0.0402 |
| CACTTAGG | -0.03 |
| ATCGCTTG | 0.00119 |
| AAGTACGT | 0.0732 |
| CGGGATCA | -0.14 |
| AGGCAATC | -0.0875 |
| CCACTGGG | -0.194 |
| CCTTTGTA | -0.00184 |
| ACTTTTCA | 0.0145 |
| GTCGGCAC | -0.0765 |
| ACGAATGC | 0.113 |
| AGCCCAAT | -0.058 |
| CACGTGAA | 0.0953 |
| AGCACACG | -0.161 |
| AAAATAAC | -0.0367 |
| CGCGGACC | 0.0642 |
| ATATGGCG | -0.0603 |
| AGTGGATC | -0.0132 |

Reprinted at random: 2 records from the list.

| Sequence | PBM E-score |
| --- | --- |
| CTCTTCGC | -0.0391 |
| ATCGCTTG | 0.00119 |

Carrying on:

| Sequence | PBM E-score |
| --- | --- |
| GGTCAAGA | -0.0653 |
| CAGGGTAA | -0.0474 |
| CAGGATCA | -0.0245 |
| CCTACTAG | -0.0253 |
| TATGGAAA | -0.0179 |
| CGGACATC | 0.0581 |
| CGCCGAAA | 0.108 |
| CTCGATGC | -0.0657 |
| GGCTACTA | -0.0539 |
| GGTACGAC | -0.169 |
| CATCCCAA | -0.085 |
| CAGACAGA | -0.0256 |
| ACGATCAT | -0.0415 |
| CATATCTC | -0.117 |
| GCCGAGAC | 0.043 |
| CACTCCGC | 0.0444 |
| GCACTCCA | -0.0817 |
| ACTTTCAG | 0.00809 |
| GCATTACA | 0.14 |
| CAAAAACC | 0.0948 |
| CTGACAGC | -0.0878 |
| GCTGGGGA | -0.215 |
| CTCGCACA | 0.132 |
| ATGTGTCC | 0.0611 |
| GGCTGGAA | -0.0352 |

An excerpt of these results, tab-delimited.
Sequence	PBM E-score
AGGGTTCC	-0.0525
CAGGGGAG	-0.277
ACGATCAT	-0.0415
GCCGAGAC	0.043
CACTCCGC	0.0444
GGCTGGAA	-0.0352

(next part)

| Sequence | PBM E-score |
| --- | --- |
| CGTTTTGC | 0.0562 |
| CCAAAGTC | -0.00757 |
| CCCTGCAG | -0.107 |
| CCTTCACG | 0.0821 |
| GGCCAAGA | -0.178 |
| CGTGAGAG | -0.234 |
| AACTAAGT | 0.114 |
| AAGCGATC | 0.183 |
| TAATCCTA | 0.0127 |
| AAACACAC | 0.1 |
| AACATGAT | 0.146 |
| CACGAACC | 0.0169 |
| CGCAAGAG | 0.055 |
| GGGGCTAC | -0.165 |
| GGATAGAC | -0.0809 |
| ACGGTACT | -0.0611 |
| ACCTACAT | 0.00622 |
| TGGTACCA | -0.0895 |
| ACGACATG | 0.0587 |
| CAGCAATC | 0.0251 |
| GGGTTAGA | -0.23 |
| CATCAACG | -0.0243 |
| ACATCACT | 0.0912 |
| GATAGGAC | -0.304 |
| AAGAGTGT | -0.029 |

| Sequence | PBM E-score |
| --- | --- |
| CAAGAAGA | -0.0138 |
| AAAACCCG | 0.0798 |
| CTATTCAC | 0.169 |
| CCAGGGAC | -0.232 |
| ATGTCTTC | -0.29 |
| ACCCAAAC | 0.122 |
| ATCCCCAC | -0.0698 |
| CTAGTGAA | -0.0185 |
| ATTCTTTG | 0.0568 |
| ATTAAGGA | 0.07 |
| GCCATTCA | 0.0337 |
| AGCTGCGA | -0.123 |
| GCTGATGA | 0.162 |
| ACCTTCGC | -0.166 |
| CAGCGGAG | 0.0275 |
| GACCGGAC | -0.133 |
| CACGAGTC | -0.0308 |
| CTCTAATC | -0.126 |
| CAAACGAG | -0.0412 |
| ATATTGAA | 0.0967 |
| AATCATAG | 0.0805 |
| CAACAGCA | -0.00801 |
| GTTCGTGA | -0.0799 |
| AAGAGGCC | -0.222 |
| AGCGCCCT | -0.0719 |

Some of the entries above in another layout:
Sequence | PBM E-score
TATGGAAA | -0.0179
CGGACATC | 0.0581
CGCCGAAA | 0.108
CTCGATGC | -0.0657

Going on with the list:

| Sequence | PBM E-score |
| --- | --- |
| GGTAGACC | -0.201 |
| GTGACCGA | -0.00409 |
| GACCGACC | 0.0236 |
| CAAAGTGG | -0.242 |
| AGTACGTA | 0.115 |
| ACGAAGCG | -0.00828 |
| CACCACTG | -0.14 |
| ATCGACGA | 0.0912 |
| CCGACTAC | -0.0199 |
| CAGGTCCA | 2e-05 |
| CTTGCGCC | -0.0483 |
| GGCTGACA | 0.313 |
| CATTCGGC | -0.0238 |
| AGCGGTCA | -0.154 |
| TCTATTCA | 0.195 |
| GCGAATCC | -0.0492 |
| ACCCGACT | 0.00464 |
| AAGCCGAG | 0.114 |
| ACGAGAGG | -0.183 |
| AATACAGA | -0.00165 |
| TACTTCTA | -0.0389 |
| CGTACATA | 0.158 |
| CTCCCTTC | -0.383 |
| CTCTTGAC | -0.037 |
| GTTTTGTA | 0.098 |

| Sequence | PBM E-score |
| --- | --- |
| GACGCGAC | -0.102 |
| AGCAAGAT | 0.069 |
| AACGGGTC | -0.242 |
| AGTGGATG | 0.0597 |
| AACAAGAA | 0.124 |
| TACCTGAA | 0.16 |
| ACAGACCC | -0.211 |
| AACATTCG | -0.0386 |
| AATTACCG | 0.0902 |
| GTTCAGAA | 0.109 |
| AAAGCCCG | -0.126 |
| CGGTGCCA | -0.121 |
| AACTATCA | 0.141 |
| CTGCGCGC | 0.302 |
| GTATTACA | 0.234 |
| AGATGGCA | 0.0766 |
| ACCTGAGC | -0.092 |
| ACTCAGAT | 0.107 |
| ACGATTAA | 0.0443 |
| TCCGCGCA | 0.134 |
| AAAGGTGG | 0.0562 |
| ACGGCCTA | 0.0633 |
| GCTTCTCC | -0.27 |
| ACAGTGAC | 0.0541 |
| CATCGGCG | 0.0426 |

| Sequence | PBM E-score |
| --- | --- |
| CGTCAATA | 0.00634 |
| ATGCGGAC | -0.0449 |
| CTGGTACC | -0.227 |
| TTCGCCAA | -0.206 |
| GCATAAGA | 0.108 |
| CTCTGGAC | 0.0228 |
| CTCGGCTA | 0.0462 |
| ATAGTACC | 0.0266 |
| AGACTCGA | -0.163 |
| ATTTGGCG | 0.098 |
| GGTACCAC | -0.125 |
| ACTGTCCT | 0.09 |
| AATTTCGG | 0.0189 |
| AAATTTTG | -0.00931 |
| AGCACTGC | -0.0698 |
| AAGTCAGC | 0.244 |
| ATTGCCAG | 0.0108 |
| AATACCAC | -0.0105 |
| GAACTATC | -0.147 |
| CAGAACCG | 0.0261 |
| CTAATCCA | 0.131 |
| CAACAAAC | 0.0451 |

Source: the supplement of paper PMC3334620
